Measured values taken from the supplement of paper PMC5949888.
Most values lie at the floor of the assay. Slopes are relative: functional sequences can read slightly below zero.

test system: Saccharomyces cerevisiae PS128 hsf1 delta, HSF1(1-493) fusion; assay: growth estimate (transactivation domain function in HSF1 fusion, heat-shock survival) (a.u. (slope of normalised read count over time)); higher = stronger growth at 37°C, i.e. more transactivation activity; conditions: library: random library

| Substance | growth estimate |
| --- | --- |
| QKHRRAHLLQPVGALFFGKR | < -0.25 |
| NNQRVT | < -0.25 |
| TQYIRKYQARQRKYDAHKSQ | < -0.25 |
| YVNVVSHKNAGGLREIRRTG | < -0.25 |
| TGYPGAAALCDYWALPRGNP | < -0.25 |
| CMGHCFIIALGFVPRSGRSD | < -0.25 |
| RVRLISTRVVFLTECYPVLT | < -0.25 |
| LLSERYQIRMGR | < -0.25 |
| FHVFSRTNIQRALARACHPR | < -0.25 |
| RNGYDTRDYTIKQETSACEP | < -0.25 |
| YENYVFPSFTGEASAENLPA | < -0.25 |
| RSK | < -0.25 |
| VHFISTRAMIGFRAQAGNTN | < -0.25 |
| SAQALLGSGVGTNH | < -0.25 |
| TLGI | < -0.25 |
| NQRRSRLRMG | < -0.25 |
| QKIGEPGFLSLGNYQKRC | < -0.25 |
| WNLCLRHGTQNCIGPCLANG | < -0.25 |
| CDAPPVLWGTI | < -0.25 |
| SSATRRPGRM | < -0.25 |
| GVTGSLSYA | < -0.25 |
| QAIRGLYC | < -0.25 |
| DNRNADL | -0.248 |
| RTSPDRDLSCRELCRELRYR | < -0.25 |
| AKYYPQGTGDDRHCNYG | < -0.25 |

| Substance | growth estimate |
| --- | --- |
| HWPVEPGF | < -0.25 |
| ITVIHGEPGT | < -0.25 |
| AGCFSTVDQ | < -0.25 |
| LRFEVPGPLESLVGIGVTTA | < -0.25 |
| RQNWFSVRLEDTLQPLGQG | < -0.25 |
| KSPTASS | < -0.25 |
| GRPHLSSMSYQNWFKGHANV | < -0.25 |
| DTDGSSYLLI | < -0.25 |
| SIKHVDQMWYSCGGNFDAAI | -0.225 |
| HLGGWRVEGNIDCSGKTAQS | < -0.25 |
| RRQSVVFNSALPKGLARRRR | < -0.25 |
| WRVGSGI | < -0.25 |
| AVFPVRNRISASAFRGRKGA | < -0.25 |
| GSTRSATLMRSSRGHSTVLP | < -0.25 |
| RPIGLFSLSVKPTQILSVIG | < -0.25 |
| PQYSLQQQS | < -0.25 |
| VDASRPGTVWESG | < -0.25 |
| EASYVSVLRFGVLLLNSVTT | < -0.25 |
| LPFP | < -0.25 |
| WMWIACSCVRRVPLCRTMSA | < -0.25 |
| SGEDRLRPTR | < -0.25 |
| AQNSADSVPLCSAVCGMKCC | < -0.253 |
| SLSPSDGHRGGVSYFGDLPR | < -0.25 |
| GPLTEN | < -0.25 |
| AWNTKSIARDSVSKPSRRVT | < -0.25 |

| Substance | growth estimate |
| --- | --- |
| FASGLFSISSQIWKGCQDKR | < -0.25 |
| RNAPS | < -0.25 |
| YGEAGPGDRCANGHTQTMAP | < -0.25 |
| ICAMLGVRISYVLTQSDESP | -0.243 |
| STVEFEFRHLLCPAQMGS | < -0.25 |
| DWGGIGVPSI | < -0.25 |
| KSRAIVTDRSLGDSFVANVG | < -0.25 |
| KFAKFYTLKNAA | < -0.25 |
| LLGKRVVTRPRYDSRRRRGY | < -0.25 |
| LTSIF | < -0.25 |
| PLGRSGWVWLLLDPARFT | < -0.25 |
| TKKSMFLVPTRRRGPMFFGC | < -0.25 |
| KLPLKYLSCTSRPNPAKYST | < -0.25 |
| WAKISCWDDVLNSCLQT | 0.226 |
| VEVLFASVSFQHGELYFFVR | < -0.25 |
| APFCPPAPT | -0.243 |
| ARIVPPLGVSLVRSICP | < -0.25 |
| ENPGGRGGTWH | < -0.25 |
| PIYRDLGLRVSF | < -0.25 |
| MGNRDAEKAE | < -0.25 |
| LSDIKFL | < -0.25 |
| ITVCNANLYQWPRGDC | < -0.25 |
| PDAKSRSVIWSQTG | < -0.25 |
| SNSHRSHWAREATRYVRPHF | < -0.25 |
| WVQRLRSVAPMVRSVWPGRA | -0.246 |

| Substance | growth estimate |
| --- | --- |
| NGPLWL | < -0.25 |
| QLHGGIDWLCRR | < -0.25 |
| GGQVIRQS | < -0.25 |
| AGVCPLALTLIRCRIVLSAW | < -0.25 |
| PISAFWYEKSANPFQVSNR | < -0.25 |
| ILIHTLLKGAEPTGKDKGL | -0.168 |
| LHHFRFRVSMRHRHLMERRR | < -0.25 |
| AHMCRRGGRGVGSPGVAESK | < -0.25 |
| ISTMI | < -0.25 |
| QWVRVGRRTQAVLNAPRCRL | < -0.25 |
| LVLSRYAVKPRASA | < -0.25 |
| RVRAGSRNLPPLVRERIRDP | < -0.25 |
| DLKIVGLTPA | < -0.25 |
| WGWSEVSSGYCTQQRLSWIA | < -0.25 |
| KDGR | < -0.25 |
| TGNVCVIPYIR | < -0.253 |
| EMSLLLGFANSGL | < -0.25 |
| LYGPADRVIVSVVNERARPL | < -0.25 |
| RCDAINPLLFPERRQYDRPA | < -0.25 |
| QRVT | < -0.25 |
| LSGDS | < -0.25 |
| RRVERIEGGRTLDVQHRPVL | < -0.25 |
| VSGLSRG | < -0.25 |
| ARLEGIVKDARRKLLDGIHR | < -0.25 |
| LPANLLGQYVTTRGAPRRQH | -0.235 |

| Substance | growth estimate |
| --- | --- |
| WGGSLGLVTGKLRTITTQRF | < -0.25 |
| NCRAVNSG | < -0.25 |
| VART | < -0.25 |
| LGWI | < -0.25 |
| RTETITGF | < -0.25 |
| RALVQTLRGSSGFVEWEGSR | < -0.25 |
| LSGIGNS | < -0.25 |
| QARVMLKNTLLTGPDHQANP | < -0.25 |
| RSGPPIKQGFDARSWPQFNP | < -0.25 |
| REGEVYD | < -0.25 |
| SGRDANPVMKEKDFILEATD | < -0.25 |
| SGDSIYATRSWRLPVPNACM | < -0.25 |
| RHQGFVGRHREC | < -0.25 |
| LHVTGIHLTRREQRMVLKVS | < -0.25 |
| LYSGEPPPANLEELPP | < -0.25 |
| VRNHRSALLADFIACHGQGP | < -0.25 |
| DGSWRMLGGDAEDKVGIRSL | < -0.25 |
| RLLFHAEWSLA | < -0.25 |
| IFC | -0.183 |
| MDCGGACVAYHTLGWHRRYE | < -0.25 |
| RMLVKRSQRV | < -0.25 |
| DCERVSMGTCPGECAHAGSS | < -0.25 |
| WERTRTFRLAYWTVWFRRKL | < -0.25 |
| QDVHYPLLVNGSIRGASTRH | < -0.25 |
| VRCVVWVIRVRWLIHQFLYS | < -0.25 |

| Substance | growth estimate |
| --- | --- |
| RQLFCTSGVIGWVSTWATER | -0.246 |
| RFGMTLSGCLFLN | < -0.25 |
| GYVGLCHRQWPLAM | < -0.25 |
| QSTGTAIQL | < -0.25 |
| TNPRLAGK | < -0.25 |
| LTAWFGS | < -0.25 |
| SVL | < -0.25 |
| TISVWPIL | < -0.25 |
| HTYKTSVILEMTVRQIFLAH | < -0.25 |
| RTGIQRVRLLGFVMITVVLI | < -0.25 |
| YTDQFMGVNNGSESGDR | 0.0721 |
| LLTVASQLFLRGFEQR | < -0.25 |
| VRVPRIASIYSACHLGPQLD | < -0.25 |
| SGMPNGQSRNPATLNSKFGQ | < -0.25 |
| SFCVMDGCD | < -0.25 |
| TRRHRLAGTVASRARNVTGT | < -0.25 |
| PMTSPPGVGGS | < -0.25 |
| EGSWVGLEGPWVDVMRHLPL | -0.216 |
| TIQKVGGTSSLGWCRGVVDD | < -0.25 |
| RIGVGVTPQGWVM | < -0.25 |
| MLVLALGDIRRLAIAIRRRC | < -0.25 |
| KEWGGHGVSP | < -0.25 |
| FLLSSSALVY | < -0.25 |
| SHRMHVRLQGNRYNS | < -0.25 |
| TLVISNARKLDLLSTAFQDG | < -0.25 |

Look-ups from the entries so far.
growth estimate with SVL is entered as < -0.25
growth estimate with RQLFCTSGVIGWVSTWATER is entered as -0.246
growth estimate with RFGMTLSGCLFLN is entered as < -0.25
growth estimate with TRRHRLAGTVASRARNVTGT is entered as < -0.25
growth estimate with RTGIQRVRLLGFVMITVVLI is entered as < -0.25

(listing goes on)

| Substance | growth estimate |
| --- | --- |
| SPRLLRVDALDIVCNRRCGW | < -0.25 |
| QSVEST | < -0.25 |
| CQSSSV | < -0.25 |
| ACIGSRRLQQITTDPVRACY | < -0.25 |
| FRAKTTNGGGKSEVDKCGG | < -0.25 |
| GLDACVQWVLGYEGNHRNMR | < -0.25 |
| QNSTSSYSTGRPHDLAAEIV | < -0.25 |
| GLATQVCPASFLGESGFVCI | 0.525 |
| GRPACGR | < -0.25 |
| RIFRT | < -0.25 |
| VTASYRPRNRLIEDEPTVGK | < -0.25 |
| RLEVQ | < -0.25 |
| VRLPNQFYGLTASDIGRFRR | < -0.25 |
| TYPTHT | < -0.25 |
| SGRSGRLIRRAIRPLHGVAQ | < -0.25 |
| GYLELVWNNREKTVTPGIKR | < -0.25 |
| VSLDT | < -0.25 |
| GVDQGFIYGHLIAESVSGLV | < -0.25 |
| IKLRAGPLTLG | -0.243 |
| RLGIVEEVLGKLLFCYSSVV | < -0.25 |
| FSLRYRSVDDTQMETSPPPG | < -0.25 |
| GKSEQSVC | < -0.25 |
| ACTSGYANREAASSNLEDAL | < -0.25 |
| SINHSAP | < -0.25 |
| TLSGSGSSLWASGDGSYSWA | < -0.25 |

| Substance | growth estimate |
| --- | --- |
| GNRGCTCPLASS | < -0.25 |
| SVCGRRVYRPRAHRCVK | < -0.25 |
| RVMTRGR | -0.246 |
| PYITAANKH | < -0.25 |
| SCIASEANRRWSYRRRE | < -0.25 |
| TQPCPALQATTYPRCAHRRV | < -0.25 |
| CQRGLSPCFYLLDISKGQYC | < -0.25 |
| PIRRTIVVDQVDHRTRQEAL | < -0.25 |
| RVLTSLGRDNFTCLVWGIWG | < -0.25 |
| GVSTVWVMNPSRSILAFLED | -0.235 |
| FLSEETGF | < -0.25 |
| RICGVIGLAPAYGFFDRVLA | < -0.25 |
| VSPVSCALNVDGSFMAPNAR | < -0.25 |
| LRNLTVVPPCYLRRNTENRI | < -0.25 |
| RNT | < -0.25 |
| IRQYR | < -0.25 |
| EILESYAGQLWNSSDGRSFY | < -0.25 |
| RGCMRRRIKKSLNLPLLAGM | < -0.25 |
| PVVGEETHTDTGQAV | < -0.25 |
| RGGFGKKDGAPLGVQVSSAS | < -0.25 |
| EHIRIDWQHVLGRPRGRRKS | < -0.25 |
| LGYS | < -0.25 |
